The other results are listed elsewhere or left out.

By UniProt entry, the sequences of proteins in these tests, tags left out. Where a name states a change or a piece, a line headed by the entry shows the natural chain unless it says otherwise.
UniProt Q15746, whole entry, looked up: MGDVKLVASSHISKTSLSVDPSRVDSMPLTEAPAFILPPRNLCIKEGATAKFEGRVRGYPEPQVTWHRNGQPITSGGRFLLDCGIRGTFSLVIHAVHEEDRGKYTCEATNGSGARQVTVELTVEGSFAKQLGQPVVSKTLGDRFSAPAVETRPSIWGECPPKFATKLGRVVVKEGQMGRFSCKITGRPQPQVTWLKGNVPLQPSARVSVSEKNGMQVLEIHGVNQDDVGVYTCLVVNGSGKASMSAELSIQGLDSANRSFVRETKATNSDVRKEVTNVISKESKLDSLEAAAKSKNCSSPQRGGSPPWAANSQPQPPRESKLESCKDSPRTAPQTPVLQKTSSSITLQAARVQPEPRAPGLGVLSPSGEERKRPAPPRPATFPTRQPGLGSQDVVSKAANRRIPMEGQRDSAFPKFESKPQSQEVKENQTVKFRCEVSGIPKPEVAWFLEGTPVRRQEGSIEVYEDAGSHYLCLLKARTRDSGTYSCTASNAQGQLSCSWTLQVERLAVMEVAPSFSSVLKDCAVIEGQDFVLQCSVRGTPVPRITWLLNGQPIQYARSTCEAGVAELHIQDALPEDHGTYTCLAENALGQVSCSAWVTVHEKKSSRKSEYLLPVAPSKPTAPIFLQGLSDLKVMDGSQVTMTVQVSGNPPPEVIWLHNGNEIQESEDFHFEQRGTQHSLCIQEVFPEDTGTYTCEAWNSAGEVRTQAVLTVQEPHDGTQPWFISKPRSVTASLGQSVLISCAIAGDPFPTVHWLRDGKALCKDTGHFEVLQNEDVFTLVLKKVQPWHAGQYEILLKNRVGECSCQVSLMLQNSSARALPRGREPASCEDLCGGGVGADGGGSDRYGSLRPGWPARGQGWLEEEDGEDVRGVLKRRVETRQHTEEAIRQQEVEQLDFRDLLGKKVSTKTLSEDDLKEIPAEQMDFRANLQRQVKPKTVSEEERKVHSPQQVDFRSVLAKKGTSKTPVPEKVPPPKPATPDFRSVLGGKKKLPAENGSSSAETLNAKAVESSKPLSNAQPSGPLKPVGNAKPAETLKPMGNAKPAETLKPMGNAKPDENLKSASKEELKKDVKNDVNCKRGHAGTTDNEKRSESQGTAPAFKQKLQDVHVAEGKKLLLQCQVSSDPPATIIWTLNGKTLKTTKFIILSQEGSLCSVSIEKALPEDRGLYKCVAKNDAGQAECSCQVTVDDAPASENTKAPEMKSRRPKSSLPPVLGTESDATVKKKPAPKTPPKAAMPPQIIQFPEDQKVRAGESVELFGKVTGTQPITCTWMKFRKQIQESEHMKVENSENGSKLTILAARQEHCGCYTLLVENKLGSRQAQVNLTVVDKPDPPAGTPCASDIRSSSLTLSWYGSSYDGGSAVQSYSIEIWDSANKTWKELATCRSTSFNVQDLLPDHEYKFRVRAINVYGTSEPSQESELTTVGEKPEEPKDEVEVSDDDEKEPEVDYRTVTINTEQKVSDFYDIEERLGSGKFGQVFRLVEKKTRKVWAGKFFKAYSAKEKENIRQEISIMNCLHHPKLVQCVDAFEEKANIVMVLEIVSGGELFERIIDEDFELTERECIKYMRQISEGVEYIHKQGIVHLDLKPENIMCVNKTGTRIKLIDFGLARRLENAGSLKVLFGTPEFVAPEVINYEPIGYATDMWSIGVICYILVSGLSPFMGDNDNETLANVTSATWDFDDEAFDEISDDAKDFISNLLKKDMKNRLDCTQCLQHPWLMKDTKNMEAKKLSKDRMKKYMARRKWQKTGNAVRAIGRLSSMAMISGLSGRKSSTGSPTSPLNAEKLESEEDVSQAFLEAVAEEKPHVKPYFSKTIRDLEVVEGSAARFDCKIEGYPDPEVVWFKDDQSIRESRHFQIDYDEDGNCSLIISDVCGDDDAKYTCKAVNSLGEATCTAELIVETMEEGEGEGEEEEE
UniProt P05976, whole entry, looked up: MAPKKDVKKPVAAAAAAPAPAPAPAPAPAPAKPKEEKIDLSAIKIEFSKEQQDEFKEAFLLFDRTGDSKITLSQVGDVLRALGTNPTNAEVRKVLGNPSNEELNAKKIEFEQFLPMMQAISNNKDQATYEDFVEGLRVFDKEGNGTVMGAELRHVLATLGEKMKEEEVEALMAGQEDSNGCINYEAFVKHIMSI
UniProt Q8TAX7: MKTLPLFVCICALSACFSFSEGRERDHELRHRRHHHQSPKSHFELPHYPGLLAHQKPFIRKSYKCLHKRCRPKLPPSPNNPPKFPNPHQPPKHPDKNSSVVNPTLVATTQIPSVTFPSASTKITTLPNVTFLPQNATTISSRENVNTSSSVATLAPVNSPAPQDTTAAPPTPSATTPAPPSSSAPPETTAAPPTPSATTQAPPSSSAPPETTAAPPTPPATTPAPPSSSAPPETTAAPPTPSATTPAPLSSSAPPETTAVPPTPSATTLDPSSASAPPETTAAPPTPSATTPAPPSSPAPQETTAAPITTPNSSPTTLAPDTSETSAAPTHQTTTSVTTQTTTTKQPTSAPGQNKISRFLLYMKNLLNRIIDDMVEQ
UniProt Q99836, whole entry, looked up: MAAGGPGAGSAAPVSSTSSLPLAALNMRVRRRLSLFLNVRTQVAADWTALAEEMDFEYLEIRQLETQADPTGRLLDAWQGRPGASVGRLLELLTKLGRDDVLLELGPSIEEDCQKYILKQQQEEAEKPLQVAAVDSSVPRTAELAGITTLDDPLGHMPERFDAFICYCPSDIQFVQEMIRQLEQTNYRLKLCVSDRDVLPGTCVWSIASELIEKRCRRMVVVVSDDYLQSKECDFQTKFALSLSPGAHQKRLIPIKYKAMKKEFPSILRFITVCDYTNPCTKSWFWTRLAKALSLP
UniProt Q96E29: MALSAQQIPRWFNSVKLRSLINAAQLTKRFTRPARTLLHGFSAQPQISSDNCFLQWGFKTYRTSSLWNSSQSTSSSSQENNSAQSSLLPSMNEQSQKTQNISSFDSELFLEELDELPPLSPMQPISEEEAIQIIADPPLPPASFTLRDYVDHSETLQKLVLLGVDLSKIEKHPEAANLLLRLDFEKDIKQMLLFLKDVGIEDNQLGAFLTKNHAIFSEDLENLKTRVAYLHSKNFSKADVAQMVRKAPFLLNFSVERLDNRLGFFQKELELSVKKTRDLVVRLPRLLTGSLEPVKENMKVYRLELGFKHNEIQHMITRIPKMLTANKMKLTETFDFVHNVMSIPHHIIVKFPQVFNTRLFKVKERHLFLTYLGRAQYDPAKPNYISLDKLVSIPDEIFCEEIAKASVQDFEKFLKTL
UniProt P03923, whole entry, looked up: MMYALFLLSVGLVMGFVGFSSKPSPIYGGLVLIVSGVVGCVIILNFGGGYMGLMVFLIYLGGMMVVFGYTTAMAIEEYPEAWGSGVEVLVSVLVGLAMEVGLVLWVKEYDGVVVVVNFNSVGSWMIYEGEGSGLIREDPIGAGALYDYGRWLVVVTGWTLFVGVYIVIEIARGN
UniProt Q9H6N6: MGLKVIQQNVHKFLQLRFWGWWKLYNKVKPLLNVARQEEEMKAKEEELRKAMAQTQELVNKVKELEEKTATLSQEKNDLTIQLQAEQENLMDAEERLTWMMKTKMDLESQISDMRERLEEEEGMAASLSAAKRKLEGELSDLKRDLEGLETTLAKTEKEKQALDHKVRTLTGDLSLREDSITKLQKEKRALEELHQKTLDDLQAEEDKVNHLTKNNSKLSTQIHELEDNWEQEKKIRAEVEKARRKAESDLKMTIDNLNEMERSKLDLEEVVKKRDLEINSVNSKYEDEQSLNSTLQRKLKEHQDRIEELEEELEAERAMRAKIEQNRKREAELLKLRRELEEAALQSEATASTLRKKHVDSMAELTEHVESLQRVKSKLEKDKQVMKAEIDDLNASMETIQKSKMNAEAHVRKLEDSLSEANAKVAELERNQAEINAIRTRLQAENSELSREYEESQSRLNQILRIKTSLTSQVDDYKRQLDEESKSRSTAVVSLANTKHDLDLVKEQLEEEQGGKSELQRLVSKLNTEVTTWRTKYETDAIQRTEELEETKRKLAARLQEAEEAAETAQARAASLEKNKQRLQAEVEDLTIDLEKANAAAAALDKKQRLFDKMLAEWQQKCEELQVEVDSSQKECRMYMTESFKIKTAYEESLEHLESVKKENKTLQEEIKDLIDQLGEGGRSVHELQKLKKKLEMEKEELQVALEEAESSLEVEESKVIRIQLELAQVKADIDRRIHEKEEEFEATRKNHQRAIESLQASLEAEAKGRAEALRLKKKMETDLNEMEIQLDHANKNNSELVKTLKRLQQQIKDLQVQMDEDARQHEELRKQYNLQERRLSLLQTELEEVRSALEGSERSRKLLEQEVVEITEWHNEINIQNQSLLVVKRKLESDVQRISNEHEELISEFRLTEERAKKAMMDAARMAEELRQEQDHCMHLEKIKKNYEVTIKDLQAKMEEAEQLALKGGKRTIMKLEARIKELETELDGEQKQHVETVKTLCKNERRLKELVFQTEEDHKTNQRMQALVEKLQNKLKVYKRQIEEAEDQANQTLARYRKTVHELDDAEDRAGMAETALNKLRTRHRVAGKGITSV
UniProt P84157: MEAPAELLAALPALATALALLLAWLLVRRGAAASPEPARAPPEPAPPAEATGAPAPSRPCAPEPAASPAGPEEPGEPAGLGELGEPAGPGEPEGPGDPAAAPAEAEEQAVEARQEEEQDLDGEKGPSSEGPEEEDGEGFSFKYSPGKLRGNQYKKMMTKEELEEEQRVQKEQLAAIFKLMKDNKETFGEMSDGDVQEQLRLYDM
UniProt Q93083: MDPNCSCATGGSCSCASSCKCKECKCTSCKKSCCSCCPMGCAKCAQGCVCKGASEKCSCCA
UniProt Q9NYA4: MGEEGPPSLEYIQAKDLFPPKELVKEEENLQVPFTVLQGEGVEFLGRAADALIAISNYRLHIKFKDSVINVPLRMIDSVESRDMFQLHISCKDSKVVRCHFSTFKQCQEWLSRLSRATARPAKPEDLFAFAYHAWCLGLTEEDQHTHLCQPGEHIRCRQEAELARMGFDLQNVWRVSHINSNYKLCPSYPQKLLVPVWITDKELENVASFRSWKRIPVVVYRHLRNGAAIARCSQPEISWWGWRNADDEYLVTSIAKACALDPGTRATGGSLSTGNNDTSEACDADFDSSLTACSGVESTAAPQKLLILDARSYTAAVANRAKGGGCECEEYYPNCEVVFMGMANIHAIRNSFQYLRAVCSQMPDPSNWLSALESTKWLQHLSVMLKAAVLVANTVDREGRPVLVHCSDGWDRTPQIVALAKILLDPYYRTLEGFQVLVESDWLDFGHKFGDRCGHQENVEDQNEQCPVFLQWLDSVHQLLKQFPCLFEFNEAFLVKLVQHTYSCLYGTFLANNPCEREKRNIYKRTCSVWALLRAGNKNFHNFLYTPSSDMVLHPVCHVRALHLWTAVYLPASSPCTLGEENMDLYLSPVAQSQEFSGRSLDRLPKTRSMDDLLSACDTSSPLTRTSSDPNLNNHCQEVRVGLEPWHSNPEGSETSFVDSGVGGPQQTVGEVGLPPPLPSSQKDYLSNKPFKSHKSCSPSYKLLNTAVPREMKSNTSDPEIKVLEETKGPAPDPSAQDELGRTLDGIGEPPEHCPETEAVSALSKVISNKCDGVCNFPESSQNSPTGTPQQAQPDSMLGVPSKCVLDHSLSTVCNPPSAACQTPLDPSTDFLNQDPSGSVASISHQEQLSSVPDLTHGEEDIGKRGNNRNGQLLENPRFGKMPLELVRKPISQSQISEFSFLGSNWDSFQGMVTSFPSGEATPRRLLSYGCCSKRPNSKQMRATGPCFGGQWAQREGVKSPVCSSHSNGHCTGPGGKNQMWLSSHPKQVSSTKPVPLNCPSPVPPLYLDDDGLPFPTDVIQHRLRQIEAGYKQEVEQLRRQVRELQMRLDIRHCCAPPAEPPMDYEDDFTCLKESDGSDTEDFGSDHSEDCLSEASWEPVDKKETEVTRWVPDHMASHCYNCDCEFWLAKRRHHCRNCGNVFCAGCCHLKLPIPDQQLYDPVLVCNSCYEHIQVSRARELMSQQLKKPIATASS
UniProt Q9NPC7: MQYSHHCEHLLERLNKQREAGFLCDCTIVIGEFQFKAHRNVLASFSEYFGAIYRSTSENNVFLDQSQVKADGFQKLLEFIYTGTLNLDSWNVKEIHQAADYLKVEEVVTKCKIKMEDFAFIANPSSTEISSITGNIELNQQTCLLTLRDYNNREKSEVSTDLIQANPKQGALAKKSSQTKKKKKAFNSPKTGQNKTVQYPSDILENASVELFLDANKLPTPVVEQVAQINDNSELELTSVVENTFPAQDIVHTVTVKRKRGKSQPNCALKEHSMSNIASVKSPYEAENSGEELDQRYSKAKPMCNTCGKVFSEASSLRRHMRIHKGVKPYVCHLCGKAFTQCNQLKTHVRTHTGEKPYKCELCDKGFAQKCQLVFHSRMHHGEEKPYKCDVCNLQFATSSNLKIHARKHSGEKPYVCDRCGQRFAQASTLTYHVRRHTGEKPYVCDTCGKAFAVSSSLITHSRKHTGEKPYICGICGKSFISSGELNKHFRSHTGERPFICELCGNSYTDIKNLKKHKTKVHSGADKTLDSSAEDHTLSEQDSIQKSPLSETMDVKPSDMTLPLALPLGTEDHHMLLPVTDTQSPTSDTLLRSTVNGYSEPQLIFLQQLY

Compound in the first test: C1=CC2=NC=CN=C2C=C1/C=C/3\C(=O)NC(=O)S3
As to the kind of experiment: log2 fold change, soluble protein after heating vs DMSO (PISA); higher = thermal stabilisation; K562 cells, 10 uM, 30 min; active = over 0.2 and 3.5 SD of the protein, either way, in both replicates (recomputed). The method, boiled down:
(§1)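 Soluble protein was defined as the supernatant after 21,000xg for 90 min. It came from K562 cells at 2×10^6 cells/mL given 10 μM compound for 30 min, heated in aliquots for 3 min across 48°C-58°C, pooled, and extracted in PBS with 0.5% NP-40 at 4°C, and was quantified by TMTpro 16plex LC-MS/MS with equalised channel sums. Thermal stability against control samples, from duplicates, is reported as log2 fold change.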
Consider MYH15 (UniProt Q9Y2K3), for which the log2 fold change was inactive: 0.392.
In the case of MT-ND3 (UniProt P03897), the log2 fold change is inactive: 0.344.
Same read-out and setting: the same measure for MTHFSD isoform 3 (UniProt Q2M296): inactive: 0.001.
Consider MTMR10 (UniProt Q9NXD2), for which the log2 fold change was inactive: 0.091.
With MTURN (UniProt Q8N3F0), the log2 fold change is inactive: 0.042.
MYH3 (UniProt P11055): the log2 fold change was inactive: -0.295.
The same measure, in the same setting: the result for MYH2 (UniProt Q9UKX2) reads inactive: -0.103.
Regarding MYL3 (UniProt P08590), the log2 fold change is inactive: 0.051.
On the same count and under the same terms, the result for MYLK (UniProt Q15746) reads inactive: -0.005.
MYL1 (UniProt P05976): the log2 fold change was inactive: 0.033.
Take MTHFD1, A0A384N5Y3: the log2 fold change is inactive: -0.06.
Still for that read-out and setting: the result for MTAP isoform 2 (UniProt Q13126) reads inactive: 0.068.
As to MUC7 (UniProt Q8TAX7), the log2 fold change is inactive: -0.113.
The same measure, in the same setting: the same measure for MYD88 isoform 6 (UniProt Q99836): inactive: 0.05; for MT-CO1 (UniProt P00395): inactive: 0.004.
For the target MTERF3 (UniProt Q96E29), the log2 fold change is inactive: 0.069.
On the same count and under the same terms, the same measure for MT-ND6 (UniProt P03923): inactive: -0.013; for MTMR1 (UniProt Q13613): inactive: 0.01; for MYL6 (UniProt G3V1V0): inactive: 0.168.
As for MTHFD1L (UniProt B7ZM99), the log2 fold change is inactive: -0.042.
On the same count and under the same terms, the result for MT-ND2 (UniProt P03891) reads inactive: 0.104.
Still for that read-out and setting: the result for MRPS14 (UniProt O60783) reads inactive: -0.004; that for MT1G (UniProt P13640), inactive: 0.104.
On the same count and under the same terms, the same measure for MYH16 (UniProt Q9H6N6): inactive: 0.284.

Compound in another test: C1=CC=C(C=C1)C2=NC(=C(N2)C3=CC=NC=C3)C4=CC(=C(C=C4)Cl)O
The test is described as above. The method, boiled down: as §1
Regarding MXRA7 isoform 3 (UniProt P84157), the log2 fold change is inactive: -0.08.
In the case of MT1L (UniProt Q93083), the log2 fold change was inactive: 0.028.
With MT-ND3 (UniProt P03897), the log2 fold change is inactive: -0.093.
Turning to MTHFSD isoform 3 (UniProt Q2M296), the log2 fold change was inactive: -0.121.
Same read-out and setting: the result for MTMR4 (UniProt Q9NYA4) reads inactive: -0.252.
The same measure, in the same setting: the result for MYL3 (UniProt P08590) reads inactive: 0.
On the same count and under the same terms, the same measure for MYLK (UniProt Q15746): inactive: 0.291.
As to MTHFD1, A0A384N5Y3, the log2 fold change was inactive: 0.036.
Same read-out and setting: the result for MUC7 (UniProt Q8TAX7) reads inactive: -0.844; that for MT-CO1 (UniProt P00395), inactive: 0.038; that for MTERF3 (UniProt Q96E29), inactive: 0.02.
Turning to MYNN (UniProt Q9NPC7), the log2 fold change is inactive: -0.095.
Still for that read-out and setting: the result for MT-CO3 (UniProt P00414) reads inactive: -0.005; that for MTMR1 (UniProt Q13613), inactive: -0.012.
Still for that read-out and setting: the same measure for MYL6 (UniProt G3V1V0): inactive: -0.027; for MTHFD1L (UniProt B7ZM99): inactive: 0.05.
The same measure, in the same setting: the same measure for MT-ND2 (UniProt P03891): inactive: 0.116.
Regarding MRPS14 (UniProt O60783), the log2 fold change is inactive: 0.049.
The same measure, in the same setting: the same measure for MT1G (UniProt P13640): inactive: 0.093.

These data come from the supplement of paper PMC10849652.
